The results in this text go back to patent USRE48959.

Positions count from the first letter of the chain named. In names and notes the source's numbering stands. No constants are given. Whether binding was seen depends on the method and setting. Some results given as binding are weak or reduced against the parent protein; the word gives no strength.

In assay [1] the target is T1, human LIV-1 (human) (UniProt Q13433).
T1 sequence: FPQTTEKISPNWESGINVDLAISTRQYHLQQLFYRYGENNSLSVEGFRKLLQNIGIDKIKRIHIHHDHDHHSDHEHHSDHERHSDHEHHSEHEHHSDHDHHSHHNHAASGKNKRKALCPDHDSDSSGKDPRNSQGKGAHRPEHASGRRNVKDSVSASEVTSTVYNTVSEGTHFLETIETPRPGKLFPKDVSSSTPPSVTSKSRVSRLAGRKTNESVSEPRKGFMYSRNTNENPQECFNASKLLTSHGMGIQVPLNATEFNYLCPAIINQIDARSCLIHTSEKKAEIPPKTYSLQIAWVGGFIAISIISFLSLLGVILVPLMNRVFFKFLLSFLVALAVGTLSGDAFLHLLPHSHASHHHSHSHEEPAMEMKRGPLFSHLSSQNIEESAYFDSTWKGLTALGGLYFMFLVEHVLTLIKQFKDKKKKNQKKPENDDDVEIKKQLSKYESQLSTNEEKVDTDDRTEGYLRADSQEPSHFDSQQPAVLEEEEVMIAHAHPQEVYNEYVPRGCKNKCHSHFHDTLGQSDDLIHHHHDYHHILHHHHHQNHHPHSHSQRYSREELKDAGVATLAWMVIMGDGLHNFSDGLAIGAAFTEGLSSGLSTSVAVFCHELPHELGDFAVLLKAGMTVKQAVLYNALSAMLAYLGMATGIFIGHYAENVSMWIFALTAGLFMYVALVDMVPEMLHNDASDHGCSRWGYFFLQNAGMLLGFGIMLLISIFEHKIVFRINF
In words: binding curves on CHO cells expressing human LIV-1, FIG. 2.

The target in assay [2] is T1, human LIV-1 (human). Put plainly: competition flow cytometry on MCF7 cells (native human LIV-1); competitor AF647-labelled BR2-14a; FIG. 3. For orientation: In flow cytometry, cells or beads pass a laser one at a time.
The target in assay [3] is T1, human LIV-1 (human). Put plainly: competition flow cytometry on CHO cells expressing recombinant human LIV-1; competitor labelled BR2-14a; FIG. 5.
The target of assay [4] is T1, human LIV-1 (human). Put plainly: competition binding assays, FIG. 17; competitor labelled BR2-22a.
For assay [5], the target named is T1, human LIV-1 (human). In words: competition flow cytometry on CHO cells expressing recombinant LIV-1; competitor labelled BR2-22a.
Assay [6] concerns the target T1, human LIV-1 (human). Put plainly: competition flow cytometry on CHO cells expressing recombinant LIV-1; competitor labelled BR2-22a; FIG. 17.

B1: humanized BR2-14a antibody HBLB (hLIV-1 HB + hLIV-1 LB) (antibody, human IgG1, V domains shown)
VH: QVQLVQSGAEVKKPGASVKVSCKASGYTIEDYYMHWVRQAPGQGLEWMGWIDPENGDTEYAPTFQGRVTMTRDTSINTAYMELSRLRSDDTAVYYCARHDAHYGTWFAYWGQGTLVTVSS
VL: DVVMTQSPLSLPVTLGQPASISCRSSQSIIRNDGNTYLEWYQQRPGQSPRRLIYRVSNRFSGVPDRFSGSGSGTDFTLKISRVEAEDVGVYYCFQGSHVPYTFGGGTKVEIKR
Take B1: the binding entry with human LIV-1 (human) [1], with human LIV-1 (human) [2] and in the assay with human LIV-1 (human) [3] was “binds” in each case.

B2: humanized BR2-14a antibody HELE (hLIV-1 HE + hLIV-1 LE) (antibody, V domains shown)
VH: B1 VH with Y27F, T28N, M48I, R67K, V68A, R72A, A97N, R98V
VL: B1 VL with Y41F, R51L
As to B2, the binding result with human LIV-1 (human) [1] and in the assay with human LIV-1 (human) [2] was “binds” each time.

B3: humanized BR2-14a antibody HBLB S239C (antibody, V domains shown)
VH: B1 VH
VL: B1 VL
For B3, in the assay with human LIV-1 (human) [3], the binding result is reported as “binds”.

B4: humanized BR2-22a antibody HELF (hLIV-22 HE + hLIV-22 LF) (antibody, V domains shown)
VH: QVQLVQSGAEVKKPGASVKVSCKASGLNIEDYYMHWVRQAPGQGLEWIGWIDPENGDTEYGPKFQGKATMTADTSINTAYMELSRLRSDDTAVYYCTVHNAHYGTWFAYWGQGTLVTVSS
VL: DVVMTQSPLSLPVTLGQPASISCRSSQSLLHSSGNTYLEWYLQRPGQSPKPLIYKISTRFSGVPDRFSGSGSGTDFTLKISRVEAEDVGVYYCFQGSHVPYTFGGGTKVEIKR
Consider B4, for which the binding entry in the assay with human LIV-1 (human) [4], in the assay with human LIV-1 (human) [5] and with human LIV-1 (human) [6] was “binds” throughout.
